Results published in article PMC9066168 (RSC Advances, 2019).
In brackets after ≈: the same amount, converted by molar mass.

Tested on: Candida albicans (MTCC 227)
Test: Minimum inhibitory concentration, agar dilution method
Type: cell-based
Settings: MTCC227, 24 h, read-out: Minimum inhibitory concentration, C. albicans

- MIC: 0.1 µg/mL (≈ 0.108 µM)
SMILES: C[C@@H]1[C@H](O)[C@@H](C)/C=C/C=C/C=C/C=C/C=C/C=C/C=C/[C@H](O[C@@H]2O[C@H](C)[C@@H](O)[C@H](N)[C@@H]2O)C[C@@H]2O[C@](O)(C[C@@H](O)C[C@@H](O)[C@H](O)CC[C@@H](O)C[C@@H](O)CC(=O)O[C@H]1C)C[C@H](O)[C@H]2C(=O)O [Amphotericin B]
